Source: PMC8755797
Results are given in words; binding and its absence hold for the method and conditions named. In cells and extracts the contact can be indirect. Some binding calls cover weakened binding; strength is not graded here. Tags and fused reporters may be left off the sequences shown.

T1: HAM1-6×His (A. thaliana) (UniProt Q9FLF7)
T1 sequence: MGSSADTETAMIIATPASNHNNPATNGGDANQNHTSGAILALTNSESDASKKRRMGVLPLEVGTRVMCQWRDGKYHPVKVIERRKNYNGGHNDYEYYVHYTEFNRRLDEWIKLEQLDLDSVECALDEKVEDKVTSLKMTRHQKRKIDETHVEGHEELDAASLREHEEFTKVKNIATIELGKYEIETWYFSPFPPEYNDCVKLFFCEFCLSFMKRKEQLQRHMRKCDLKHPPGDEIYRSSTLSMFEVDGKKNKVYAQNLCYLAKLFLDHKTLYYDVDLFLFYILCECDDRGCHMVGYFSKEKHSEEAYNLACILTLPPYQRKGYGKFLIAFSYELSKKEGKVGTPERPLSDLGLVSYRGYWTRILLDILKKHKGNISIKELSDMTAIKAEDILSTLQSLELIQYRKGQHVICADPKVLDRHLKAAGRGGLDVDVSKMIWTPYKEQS

T2: ING2-6×His (A. thaliana) (UniProt B3H615)
T2 sequence: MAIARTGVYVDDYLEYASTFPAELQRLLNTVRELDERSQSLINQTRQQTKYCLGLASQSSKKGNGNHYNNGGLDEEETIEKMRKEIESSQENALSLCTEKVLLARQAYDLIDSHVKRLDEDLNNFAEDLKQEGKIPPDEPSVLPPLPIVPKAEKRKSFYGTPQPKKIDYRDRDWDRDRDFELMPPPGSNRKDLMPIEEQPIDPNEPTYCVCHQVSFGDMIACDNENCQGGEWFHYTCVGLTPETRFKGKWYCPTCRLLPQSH


Tests used:
[1] = molecular target: T1, HAM1-6×His (A. thaliana); test: pull-down; co-purification: HAM1-6×His, Flag-AtEPL1A, AtING2 and AtEAF6 co-expressed in E. coli from polycistronic pST44; purified on Talon cobalt resin via HAM1-6×His, eluted with 150 mM imidazole; Coomassie gel, western blot for HAM1-His and Flag-AtEPL1A
[2] = molecular target: T2, ING2-6×His (A. thaliana); test: pull-down; co-purification: Flag-HAM1, ING2-6×His and AtEAF6 co-expressed in E. coli from pST44 without the AtEPL1A sequence; cobalt resin via ING2-6×His; anti-Flag western blot
[3] = molecular target: T2, ING2-6×His (A. thaliana); test: pull-down; co-purification: Flag-HAM1, ING2-6×His, AtEPL1A and AtEAF6 co-expressed in E. coli from pST44; cobalt resin via ING2-6×His, then anti-Flag M2 resin, elution with 3×FLAG peptides

Row | Binder | binding [1] | binding [2] | binding [3]
1 | AtING2 (protein, UniProt B3H615 1-262) MAIARTGVYVDDYLEYASTFPAELQRLLNTVRELDERSQSLINQTRQQTKYCLGLASQSSKKGNGNHYNNGGLDEEETIEKMRKEIESSQENALSLCTEKVLLARQAYDLIDSHVKRLDEDLNNFAEDLKQEGKIPPDEPSVLPPLPIVPKAEKRKSFYGTPQPKKIDYRDRDWDRDRDFELMPPPGSNRKDLMPIEEQPIDPNEPTYCVCHQVSFGDMIACDNENCQGGEWFHYTCVGLTPETRFKGKWYCPTCRLLPQSH | binds | – | –
2 | Flag-HAM1 (enzyme, UniProt Q9FLF7 1-445) MGSSADTETAMIIATPASNHNNPATNGGDANQNHTSGAILALTNSESDASKKRRMGVLPLEVGTRVMCQWRDGKYHPVKVIERRKNYNGGHNDYEYYVHYTEFNRRLDEWIKLEQLDLDSVECALDEKVEDKVTSLKMTRHQKRKIDETHVEGHEELDAASLREHEEFTKVKNIATIELGKYEIETWYFSPFPPEYNDCVKLFFCEFCLSFMKRKEQLQRHMRKCDLKHPPGDEIYRSSTLSMFEVDGKKNKVYAQNLCYLAKLFLDHKTLYYDVDLFLFYILCECDDRGCHMVGYFSKEKHSEEAYNLACILTLPPYQRKGYGKFLIAFSYELSKKEGKVGTPERPLSDLGLVSYRGYWTRILLDILKKHKGNISIKELSDMTAIKAEDILSTLQSLELIQYRKGQHVICADPKVLDRHLKAAGRGGLDVDVSKMIWTPYKEQS | – | binds | binds
